Reference: patent publication US20090298811A1, “BENZIMIDAZOLONE DERIVATIVES” (Pfizer Inc, priority 2006, published 2009)
The match of structure and compound is tentative.

Amino acid sequences for entries named in this document (tags omitted).
UniProt P21554, whole entry: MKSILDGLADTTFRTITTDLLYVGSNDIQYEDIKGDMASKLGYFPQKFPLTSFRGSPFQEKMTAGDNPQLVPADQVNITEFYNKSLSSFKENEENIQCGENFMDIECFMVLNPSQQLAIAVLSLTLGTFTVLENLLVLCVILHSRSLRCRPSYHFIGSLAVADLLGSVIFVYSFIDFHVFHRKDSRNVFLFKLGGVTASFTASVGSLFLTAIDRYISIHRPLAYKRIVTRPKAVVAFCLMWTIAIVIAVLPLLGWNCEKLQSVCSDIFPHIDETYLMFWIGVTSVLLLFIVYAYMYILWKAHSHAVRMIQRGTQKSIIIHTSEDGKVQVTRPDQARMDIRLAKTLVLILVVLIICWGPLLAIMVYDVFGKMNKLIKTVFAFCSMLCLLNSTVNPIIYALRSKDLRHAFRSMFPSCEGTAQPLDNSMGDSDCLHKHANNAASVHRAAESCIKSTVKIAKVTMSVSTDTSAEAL

Key:
[1] = target: T1, human CB1 receptor (Homo sapiens, UniProt P21554); assay: GTPγS binding on membranes of CHO cells expressing the human CB1 receptor; conditions: read-out: GTPγS EC50, CHO cell membranes, [35S] GTPγS
Protocol: Membrane preparation: CHO cells expressing the human CB1 receptor were grown to 80% confluence in Ham's F-12 Nutrient Medium (Invitrogen) containing 10% fetal bovine serum (Invitrogen), 1% pen/strep (Invitrogen), 1% Nonessential amino acids (Invitrogen) and 500 μg/ml G418 (Invitrogen). Cells were released from flasks using Cell Dissociation Buffer (Invitrogen). Cells were pelleted by centrifugation at 500×G for 5 minutes. Membranes were prepared by resuspending cells in ice cold Assay Buffer (25 mM Tris pH 7.4, 5 mM EDTA, 5 mM EGTA, Complete Protease Inhibitor (Roche)). Cells were lysed with 12 strokes of a dounce homogenizer. Unlysed cells were pelleted by centrifugation at 500×G for 5 minutes. Membranes were pelleted by centrifugation at 25,000×G for 30 minutes. Membranes were resuspended in TEE, dounced 12 strokes, and pelleted a second time at 25,000×G for 30 minutes. Membrane pellet was resuspended in 50 mM Tris pH 7.4, 100 mM NaCl, 3 mM MgCl2, 0.2 mM EGTA, Complete Protease Inhibitor (Roche). Protein concentration was determined using the Micro-BCA Protein Assay Kit (Pierce) using BSA as a standard. […] 40 μl of Microscint-20 (Perkin Elmer) was added per well, and plates were counted using a Top-Count Microplate Scintillation Counter (Perkin Elmer). Binding data were analyzed and EC50 values were calculated using Graph Pad Prism 4.0 Software.

[2] = target: T1, human CB1 receptor; assay: Human CB1 receptor binding, [3H] CP-55,940 displacement on HEK cell membranes; conditions: read-out: CB1 Ki, [3H] CP-55,940 500 pM
Protocol: The Human CB1 receptor binding affinity and other biological activities of the compounds of this invention are determined by the following procedures.
Membrane preparation: Human Embryonic Kidney (HEK) Cells expressing the human CB1 receptor under transcriptional regulation of a tetracycline inducible promoter were grown in Dulbecco's Modified Essential Medium with sodium pyruvate (Invitrogen, Carlsbad, Calif.) containing 10% tetracycline free fetal bovine serum (Clonetech, Mountain View, Calif.) 100 μg/ml hygromycin (Calbiochem, San Diego, Calif.), 5 μg/ml blasticidin (Invitrogen). CB1 receptor expression was induced by addition of 1 μg/ml doxycycline (Calbiochem) and incubation for an additional 24 hours. Cells were released from flasks using Cell Dissociation Buffer (Invitrogen). Cells were pelleted by centrifugation at 500×G for 5 minutes. […] Protein concentration was determined using the Micro-BCA Protein Assay Kit (Pierce, Rockford, Ill.) using BSA as a standard. […] Nonspecific binding was determined by incubation with 50 μM WIN-55,212-2 (Tocris, Ellisville, Mo.). […] 40 μl of Microscint-20 (Perkin Elmer) was added per well, and plates were counted using a Top-Count Microplate Scintillation Counter (Perkin Elmer). Binding data were analyzed and EC50 and Ki values calculated using Graph Pad Prism 4.0 Software.

CSCCn1c(=O)n(C(=O)N[C@H](C(N)=O)C(C)(C)C)c2cccc(C)c21
EC50 [1]: 15 nM
Ki [2]: 0.95 nM
